Laboratory results from article doi:10.1101/2021.03.17.435899.
Results are given in words; binding and its absence hold for the method and conditions named. In cells and extracts the contact can be indirect. Some results given as binding are weak or reduced against the parent protein; the word gives no strength. Where a sequence is shown, tags or fusion partners need not be part of it.

Amino acid sequences for entries named in this document (tags omitted).
UniProt Q38912: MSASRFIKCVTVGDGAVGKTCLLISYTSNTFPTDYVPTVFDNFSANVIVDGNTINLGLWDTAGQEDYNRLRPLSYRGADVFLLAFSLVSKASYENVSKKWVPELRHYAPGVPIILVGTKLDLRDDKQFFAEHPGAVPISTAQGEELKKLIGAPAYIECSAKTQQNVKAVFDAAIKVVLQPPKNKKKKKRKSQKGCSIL

Target: T1, MBP-RIC1 (Arabidopsis) (UniProt F4IVV0)
T1 sequence: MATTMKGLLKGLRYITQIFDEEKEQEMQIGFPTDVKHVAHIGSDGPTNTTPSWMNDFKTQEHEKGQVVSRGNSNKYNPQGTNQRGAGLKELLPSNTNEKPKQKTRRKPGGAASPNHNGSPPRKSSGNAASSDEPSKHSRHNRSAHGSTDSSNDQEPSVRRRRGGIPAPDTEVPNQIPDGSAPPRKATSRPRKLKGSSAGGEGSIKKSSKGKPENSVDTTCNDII
Experiment: pull-down

Which binding does the source give for GFP-ROP6 (from UniProt Q38912 1-198) here?
Its binding is “binds”.

With ROP6 (from UniProt Q38912 1-198) as the substance, how does the binding read?
The binding was “binds”.
